Assay [1] deals with FLAG-tagged mouse Cradd death domain (wild type) (mouse) (UniProt O88843). As to the kind of experiment: co-IP; FLAG-M2 affinity resin; lysates of mIMCD3 cells co-transfected with FLAG-Cradd DD and V5-Pidd DD; cleared lysates incubated at 37°C for 1 h prior to overnight incubation on the resin; blots with anti-FLAG M2 and anti-V5.
Assay [2] deals with FLAG-tagged mouse Cradd death domain p.Gly128Arg (mouse) (UniProt O88843). The assay is described as above.

Sequences of proteins named here, by UniProt entry; tags and fusion partners are left off. A change or cut given only in a name is not applied to a line headed by its entry. A line that says so, or that is headed by a name, gives the form on record, which may keep a tag or linker. Residues count along the entry.
FLAG-tagged mouse Cradd death domain (wild type) (O88843, residues 116-188): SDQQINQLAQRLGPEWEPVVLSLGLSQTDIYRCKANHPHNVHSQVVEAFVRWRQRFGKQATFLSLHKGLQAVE
FLAG-tagged mouse Cradd death domain p.Gly128Arg (O88843, form named): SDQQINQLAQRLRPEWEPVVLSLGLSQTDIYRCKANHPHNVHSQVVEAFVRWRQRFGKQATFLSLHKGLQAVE

Drawing on article PMC3260153, this text covers binding for one molecule.

No constants are given. Whether binding was seen depends on the method and setting. Binding seen in cells or lysates may run through a third protein. Some entries that bind do so weakly or less than the wild type. Tags and fused reporters may be left off the sequences shown.

B1: V5-tagged mouse Pidd death domain (wild type) (domain or fragment, UniProt Q9ERV7 793-878)
chain: TQSNLLSVASRLGPDWPAVALHLGMPYHKLQRIRHEFRDDLDGQVRHMLFSWAERQTGQPGAVGHLVQALEQSDRRDVAEEVRAIL
For B1, the binding entry is “binds” in assay [1] and “no binding” in assay [2].
